PubChem BioAssay AID720505 – Drosophila RNAi Screening Center – 2013
In all, the deposit lists about 20,000 reagents; below is a random part of those that have a named target and a result. Over the whole deposit, about 2,100 (10%) got an active call. 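Raw plate signals without normalisation; calls rest on control-based scores that were not deposited; replicate 2 separates called from uncalled poorly.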 Not stated in the record: the amount of reagent, the time to read-out.

Purpose: 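Genes needed for store-operated calcium entry in fly cells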 (primary screen)
Cell system: Drosophila S2R+ cells
Knock-down reagent: long dsRNA against Drosophila genes
Challenge: thapsigargin (2 µM) in calcium-free buffer to empty internal stores, then 2 mM calcium added back
Detection: 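Stores emptied by 2 µM thapsigargin without calcium, then 2 mM calcium re-added; fluo-4 fluorescence followed by FLIPR in 384-well plates, per-well averaged endpoint, raw; two screen passes, some wells retested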
Scale: calcium signal: higher = more calcium entry after store depletion
Call rule: 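About 1500 genes called as lowering calcium entry, by varying amounts, judged against per-plate control wells with STIM1 as positive and Rho1 as negative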
Calls: active = called as lowering calcium entry; inactive = not called

zen2 (GeneID 40827) [DRSC12633]: calcium signal, replicate 1 = 121; calcium signal, replicate 2 = 170; Outcome = inactive
RhoGAP68F (GeneID 39385) [DRSC10717]: calcium signal, replicate 1 = 103; calcium signal, replicate 2 = 116; Outcome = inactive
DCTN4-p62 (GeneID 35709) [DRSC06101]: calcium signal, replicate 1 = 138; calcium signal, replicate 2 = 88.4; Outcome = inactive
Pabp2 (GeneID 35788) [DRSC07501]: calcium signal, replicate 1 = 61.5; calcium signal, replicate 2 = 62.5; Outcome = active
CG14659 (GeneID 40604) [DRSC12245]: calcium signal, replicate 1 = 59.4; calcium signal, replicate 2 = 105; Outcome = active
Cpr51A (GeneID 36613) [DRSC05969]: calcium signal, replicate 1 = 114; calcium signal, replicate 2 = 142; Outcome = inactive
Elp6 (GeneID 41641) [DRSC16571]: calcium signal, replicate 1 = 117; calcium signal, replicate 2 = 92.6; Outcome = inactive

Just “calcium signal, replicate 1”, for 2 of the entries above:
CG14659 (GeneID 40604) [DRSC12245]	59.4
Cpr51A (GeneID 36613) [DRSC05969]	114

The list goes on.
Acp65Aa (GeneID 38710) [DRSC09663]: calcium signal, replicate 1 = 114; calcium signal, replicate 2 = 94.9; Outcome = inactive
CG14762 (GeneID 35768) [DRSC05073]: calcium signal, replicate 1 = 93.7; calcium signal, replicate 2 = 126; Outcome = inactive
CG14762 (GeneID 35768) [DRSC06496]: calcium signal, replicate 1 = 105; calcium signal, replicate 2 = 82.6; Outcome = inactive
ATPsynCF6L (GeneID 38592) [DRSC08232]: calcium signal, replicate 1 = 103; calcium signal, replicate 2 = 91.3; Outcome = inactive
Cyp28d1 (GeneID 33749) [DRSC03298]: calcium signal, replicate 1 = 106; calcium signal, replicate 2 = 233; Outcome = inactive
Cyp28d1 (GeneID 33749) [DRSC21331]: calcium signal, replicate 1 = 128; calcium signal, replicate 2 = 87.8; Outcome = inactive
